# Experimental data from PubChem BioAssay AID1347421 (Sanford-Burnham Center for Chemical Genomics, 2020).
# Sequences of proteins named here, by UniProt entry; tags and fusion partners are left off. A change or cut given only in a name is not applied to a line headed by its entry.
# UniProt O00391: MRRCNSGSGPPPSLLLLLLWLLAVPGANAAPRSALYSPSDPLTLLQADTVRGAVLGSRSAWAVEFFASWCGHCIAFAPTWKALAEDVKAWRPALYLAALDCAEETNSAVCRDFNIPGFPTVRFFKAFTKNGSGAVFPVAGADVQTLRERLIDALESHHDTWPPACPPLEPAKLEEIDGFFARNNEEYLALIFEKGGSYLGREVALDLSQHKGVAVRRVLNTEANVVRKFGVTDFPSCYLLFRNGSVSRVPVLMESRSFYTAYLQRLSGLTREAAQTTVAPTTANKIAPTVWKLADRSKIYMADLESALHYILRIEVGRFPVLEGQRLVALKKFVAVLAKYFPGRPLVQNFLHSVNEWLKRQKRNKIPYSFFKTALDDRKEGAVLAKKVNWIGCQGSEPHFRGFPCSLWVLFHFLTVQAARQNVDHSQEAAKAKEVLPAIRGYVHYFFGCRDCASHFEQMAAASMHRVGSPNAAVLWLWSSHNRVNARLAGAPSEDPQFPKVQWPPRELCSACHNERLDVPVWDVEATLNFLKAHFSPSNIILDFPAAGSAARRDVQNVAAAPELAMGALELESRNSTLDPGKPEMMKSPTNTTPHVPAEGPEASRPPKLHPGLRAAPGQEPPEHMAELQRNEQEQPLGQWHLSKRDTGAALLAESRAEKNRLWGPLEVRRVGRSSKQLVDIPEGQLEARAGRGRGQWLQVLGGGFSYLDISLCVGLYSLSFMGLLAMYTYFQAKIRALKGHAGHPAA
# Whole data set: some 1,500 compounds, median “activity” near 2, cut for the lowest 2% near -18. This is one part of the list. The source made the active and inactive calls.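 The calls were made as follows: active = inhibition of at least 40% at 10 µM; inconclusive = no clear call, values can overlap the other calls; inactive = the rest.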
# Molecular target: Sulfhydryl oxidase 1 (Homo sapiens) (UniProt O00391)
# Assay: human QSOX1 sulfhydryl oxidase inhibition – biochemical, ROS-Glo luminescence, single concentration, confirmation (AID 1347421);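 also: 0% = DMSO wells with enzyme and 100% = wells lacking QSOX1 enzyme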
# Settings: recombinant hQSOX1, RNase A substrate, ROS-Glo H2O2 luminescence; at 10 µM
row,Compound,activity
1,COc1cc(CN2CCCC(C(=O)c3ccc(SC)cc3)C2)ccc1O (stereo not drawn),1.2%
2,O=C(c1cccc2ccccc12)C1CCCN(C2CCC2)C1 (stereo not drawn),inactive: -1.4%
3,O=C(Cc1cccnc1)N1CCCC(N2CCN(Cc3ccc4c(c3)OCO4)CC2)C1 (stereo not drawn),26.5%
4,O=C(c1ccc(Cl)cc1)C1CCCN(Cc2cccnc2)C1 (stereo not drawn),1.9%
5,COc1cccc(C2(C#N)CCN(C)CC2)c1,3.7%
6,CN1CCC(N2CCCC(NC(=O)C3(c4ccccc4)CCN(C)CC3)C2)CC1 (stereo not drawn),2.2%
7,Cc1ncc(CN2CCCC(C(=O)c3ccc(C(F)(F)F)cc3)C2)s1 (stereo not drawn),inactive: -4.1%
8,O=C(NCCC1=CCCCC1)c1cn(CC2CCCO2)nn1 (stereo not drawn),inactive: -2.1%
9,O=C1N(Cc2cccnc2)CCCC12CCN(C1CCSCC1)C2 (stereo not drawn),8.7%
10,CN1CCC(N2CCCC(NC(=O)C3C(C)(C)C3(C)C)C2)CC1 (stereo not drawn),1%
11,CN(C(=O)Cc1cccnc1)C1CCCN(CCCc2ccccc2)C1 (stereo not drawn),inactive: -1.6%
12,COc1ccc(F)cc1C(=O)C1CCCN(Cc2cnc(SC)nc2)C1 (stereo not drawn),inactive: -2.5%
13,Cc1nn(Cc2ccccc2)cc1C(=O)O,inactive: -14.1%
14,CN(C(=O)Cc1ccn(C)c1)C1CCCN(C2Cc3ccccc3C2)C1 (stereo not drawn),2.3%
15,CC(C)(C)CN1CCN(Cc2ccc(F)cc2Cl)CC1CCO (stereo not drawn),2%
16,O=C(c1cccnc1)C1CCCN(Cc2nc(-c3ccccn3)no2)C1 (stereo not drawn),3.7%
17,COC1=[C+]C=C(CCN)c2ccccc21,inactive: -9.6%
18,O=C(C(=O)N1CCOCC1)c1cn(Cc2ccccc2)c2ccccc12,inactive: -2.7%

# Not a retest: 2 of the compounds above.
row,Compound,activity
4,O=C(c1ccc(Cl)cc1)C1CCCN(Cc2cccnc2)C1 (stereo not drawn),1.9%
5,COc1cccc(C2(C#N)CCN(C)CC2)c1,3.7%
